Experimental findings from patent US11566057B2 (Merck Sharp & Dohme Corp., priority 2017, dated 2023) are described below.

A short description of this data set: general procedure: Fmoc solid-phase peptide synthesis; Rink-amide PEG-PS resin (Champion, Biosearch Technologies, 0.28 mmol/g) or Rink-amide PS resin (ChemImpex 0.47 mmol/g); N; HATU/DIEA. As to conditions: lipidation step.

In the case of HsQGTFTSDK(N3)SKYLDARAAQDFVQWLLDT-NH2, the “final purity (method not given)” value worked out at 96% and the step yield is 9.06% yield.
